PubChem BioAssay AID652259, Drosophila RNAi Screening Center – 2013
The screen tested about 22,000 reagents; this is a random part of those that have a named target and a result. Of all reagents, 233 (1.1%) got an active call. 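Light values are raw, unnormalised plate reads; the ratio scores behind the reporter calls were not deposited.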 Entries without a mark were called inactive. Not stated in the record: the amount of reagent, the time to read-out, the dose of the treatment.

- Assay: 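Genome-wide hunt for genes that control Wingless pathway activity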 (primary screen)
- Cell system: Drosophila clone 8 imaginal disc epithelial cells
- Reagent: long dsRNA against Drosophila genes
- Treatment: pathway stimulated by co-transfected Wingless expression plasmid
- Measured: 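Firefly luciferase from a tcf-site Wingless reporter, measured alongside co-transfected Renilla luciferase that tracks transfection; pathway stimulated by a Wingless plasmid; the firefly-to-Renilla ratio is not deposited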
- Reading the numbers: firefly reporter light: higher = more Wg reporter light, before normalisation; Renilla control light: higher = more transfected or surviving cells
- Hit rule: 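a knock-down is a candidate when at least two out of four statistical tests show it departing from its plate mean; one test alone signals a weak candidate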
- Calls: active = candidate regulator (raises or lowers reporter); inactive = not a candidate

Gr59f (Gustatory receptor 59f) [DRSC04499] gave firefly reporter light, replicate 1 = 1972; firefly reporter light, replicate 2 = 6393; Renilla control light, replicate 1 = 648; Renilla control light, replicate 2 = 2148.
Silencing of CG18180 [DRSC10304] came out at: firefly reporter light, replicate 1 = 1808; Renilla control light, replicate 1 = 920.
For Ank2 (Ankyrin 2) [DRSC08894], the values are firefly reporter light, replicate 1 = 3763; Renilla control light, replicate 1 = 1339.
Silencing of Ank2 (Ankyrin 2) [DRSC09666] gave: firefly reporter light, replicate 1 = 1399; firefly reporter light, replicate 2 = 9085; Renilla control light, replicate 1 = 1184; Renilla control light, replicate 2 = 3435.
Ank2 (Ankyrin 2) [DRSC10338] showed firefly reporter light, replicate 1 = 1533; firefly reporter light, replicate 2 = 7098; Renilla control light, replicate 1 = 887; Renilla control light, replicate 2 = 2931.
Knock-down of Ank2 (Ankyrin 2) [DRSC11278] gave: firefly reporter light, replicate 1 = 1072; firefly reporter light, replicate 2 = 8384; Renilla control light, replicate 1 = 929; Renilla control light, replicate 2 = 2388.
Knock-down of Ank2 (Ankyrin 2) [DRSC22922] resulted in: firefly reporter light, replicate 1 = 6.67e5; firefly reporter light, replicate 2 = 6.06e5; Renilla control light, replicate 1 = 2.86e5; Renilla control light, replicate 2 = 93572.
Silencing of lncRNA:CR32660 (long non-coding RNA:CR32660) [DRSC22965] gave: firefly reporter light, replicate 1 = 4.85e5; firefly reporter light, replicate 2 = 5.63e5; Renilla control light, replicate 1 = 2.00e5; Renilla control light, replicate 2 = 2.13e5.

An excerpt from the list above:
Ank2 (Ankyrin 2) [DRSC08894]: firefly reporter light, replicate 1 = 3763; Renilla control light, replicate 1 = 1339
Ank2 (Ankyrin 2) [DRSC09666]: firefly reporter light, replicate 1 = 1399; firefly reporter light, replicate 2 = 9085; Renilla control light, replicate 1 = 1184; Renilla control light, replicate 2 = 3435
Ank2 (Ankyrin 2) [DRSC10338]: firefly reporter light, replicate 1 = 1533; firefly reporter light, replicate 2 = 7098; Renilla control light, replicate 1 = 887; Renilla control light, replicate 2 = 2931
Ank2 (Ankyrin 2) [DRSC11278]: firefly reporter light, replicate 1 = 1072; firefly reporter light, replicate 2 = 8384; Renilla control light, replicate 1 = 929; Renilla control light, replicate 2 = 2388

More entries:
Depletion of CG32037 [DRSC10363] gave: firefly reporter light, replicate 1 = 9063; Renilla control light, replicate 1 = 3712.
After knock-down of CG32152 [DRSC22906], the record shows firefly reporter light, replicate 1 = 7.41e5; firefly reporter light, replicate 2 = 7.23e5; Renilla control light, replicate 1 = 3.02e5; Renilla control light, replicate 2 = 2.79e5.
After knock-down of Pp4-19C (Protein phosphatase 19C) [DRSC20559], the screen gave firefly reporter light, replicate 1 = 16550; Renilla control light, replicate 1 = 8508.
With knock-down of Pp4-19C (Protein phosphatase 19C) [DRSC21251] the results were firefly reporter light, replicate 1 = 33924; Renilla control light, replicate 1 = 9158.
CG11106 [DRSC19381] gave firefly reporter light, replicate 1 = 17954; Renilla control light, replicate 1 = 9168.
For CG18473 [DRSC16381] the deposit lists firefly reporter light, replicate 1 = 14202; Renilla control light, replicate 1 = 3322.
With knock-down of CG2061 [DRSC19348], the record shows firefly reporter light, replicate 1 = 2892; firefly reporter light, replicate 2 = 6912; Renilla control light, replicate 1 = 1196; Renilla control light, replicate 2 = 2261.
With knock-down of Hr51 (Hormone receptor 51) [DRSC06627], the screen gave firefly reporter light, replicate 1 = 6672; Renilla control light, replicate 1 = 2741.
With knock-down of Hr51 (Hormone receptor 51) [DRSC22829] the results were firefly reporter light, replicate 1 = 3.49e5; firefly reporter light, replicate 2 = 3.55e5; Renilla control light, replicate 1 = 1.61e5; Renilla control light, replicate 2 = 1.89e5.
For AANATL7 (Arylalkylamine N-acetyltransferase-like 7) [DRSC18616] the deposit lists firefly reporter light, replicate 1 = 17338; Renilla control light, replicate 1 = 13187.
After knock-down of CG30065 [DRSC05420], the screen gave firefly reporter light, replicate 1 = 19378; Renilla control light, replicate 1 = 16125.
Against CG13947 [DRSC00365], the entry reads firefly reporter light, replicate 1 = 4736; firefly reporter light, replicate 2 = 6794; Renilla control light, replicate 1 = 1852; Renilla control light, replicate 2 = 4208.
With knock-down of Hsp83 (Heat shock protein 83) [DRSC08664], the record shows reporter change call, replicate 1 = Wg reporter activity raised; firefly reporter light, replicate 1 = 15433; Renilla control light, replicate 1 = 2870.
Against CG43277 [DRSC05800], the entry reads firefly reporter light, replicate 1 = 20725; Renilla control light, replicate 1 = 17812.
After knock-down of CG17272 [DRSC15211], the screen gave firefly reporter light, replicate 1 = 16513; Renilla control light, replicate 1 = 4074.
GluRIA (Glutamate receptor IA) [DRSC11176] scored firefly reporter light, replicate 1 = 1529; firefly reporter light, replicate 2 = 10915; Renilla control light, replicate 1 = 1108; Renilla control light, replicate 2 = 4130.
With knock-down of CG10702 [DRSC02097] the results were firefly reporter light, replicate 1 = 6432; Renilla control light, replicate 1 = 2180.
